Article PMC11475711
Results are given in words; binding and its absence hold for the method and conditions named. Binding seen in cells or lysates may run through a third protein. Some entries that bind do so weakly or less than the wild type.

Chains of the proteins cited; added tags and fusions are not shown.
UniProt Q8VDD5: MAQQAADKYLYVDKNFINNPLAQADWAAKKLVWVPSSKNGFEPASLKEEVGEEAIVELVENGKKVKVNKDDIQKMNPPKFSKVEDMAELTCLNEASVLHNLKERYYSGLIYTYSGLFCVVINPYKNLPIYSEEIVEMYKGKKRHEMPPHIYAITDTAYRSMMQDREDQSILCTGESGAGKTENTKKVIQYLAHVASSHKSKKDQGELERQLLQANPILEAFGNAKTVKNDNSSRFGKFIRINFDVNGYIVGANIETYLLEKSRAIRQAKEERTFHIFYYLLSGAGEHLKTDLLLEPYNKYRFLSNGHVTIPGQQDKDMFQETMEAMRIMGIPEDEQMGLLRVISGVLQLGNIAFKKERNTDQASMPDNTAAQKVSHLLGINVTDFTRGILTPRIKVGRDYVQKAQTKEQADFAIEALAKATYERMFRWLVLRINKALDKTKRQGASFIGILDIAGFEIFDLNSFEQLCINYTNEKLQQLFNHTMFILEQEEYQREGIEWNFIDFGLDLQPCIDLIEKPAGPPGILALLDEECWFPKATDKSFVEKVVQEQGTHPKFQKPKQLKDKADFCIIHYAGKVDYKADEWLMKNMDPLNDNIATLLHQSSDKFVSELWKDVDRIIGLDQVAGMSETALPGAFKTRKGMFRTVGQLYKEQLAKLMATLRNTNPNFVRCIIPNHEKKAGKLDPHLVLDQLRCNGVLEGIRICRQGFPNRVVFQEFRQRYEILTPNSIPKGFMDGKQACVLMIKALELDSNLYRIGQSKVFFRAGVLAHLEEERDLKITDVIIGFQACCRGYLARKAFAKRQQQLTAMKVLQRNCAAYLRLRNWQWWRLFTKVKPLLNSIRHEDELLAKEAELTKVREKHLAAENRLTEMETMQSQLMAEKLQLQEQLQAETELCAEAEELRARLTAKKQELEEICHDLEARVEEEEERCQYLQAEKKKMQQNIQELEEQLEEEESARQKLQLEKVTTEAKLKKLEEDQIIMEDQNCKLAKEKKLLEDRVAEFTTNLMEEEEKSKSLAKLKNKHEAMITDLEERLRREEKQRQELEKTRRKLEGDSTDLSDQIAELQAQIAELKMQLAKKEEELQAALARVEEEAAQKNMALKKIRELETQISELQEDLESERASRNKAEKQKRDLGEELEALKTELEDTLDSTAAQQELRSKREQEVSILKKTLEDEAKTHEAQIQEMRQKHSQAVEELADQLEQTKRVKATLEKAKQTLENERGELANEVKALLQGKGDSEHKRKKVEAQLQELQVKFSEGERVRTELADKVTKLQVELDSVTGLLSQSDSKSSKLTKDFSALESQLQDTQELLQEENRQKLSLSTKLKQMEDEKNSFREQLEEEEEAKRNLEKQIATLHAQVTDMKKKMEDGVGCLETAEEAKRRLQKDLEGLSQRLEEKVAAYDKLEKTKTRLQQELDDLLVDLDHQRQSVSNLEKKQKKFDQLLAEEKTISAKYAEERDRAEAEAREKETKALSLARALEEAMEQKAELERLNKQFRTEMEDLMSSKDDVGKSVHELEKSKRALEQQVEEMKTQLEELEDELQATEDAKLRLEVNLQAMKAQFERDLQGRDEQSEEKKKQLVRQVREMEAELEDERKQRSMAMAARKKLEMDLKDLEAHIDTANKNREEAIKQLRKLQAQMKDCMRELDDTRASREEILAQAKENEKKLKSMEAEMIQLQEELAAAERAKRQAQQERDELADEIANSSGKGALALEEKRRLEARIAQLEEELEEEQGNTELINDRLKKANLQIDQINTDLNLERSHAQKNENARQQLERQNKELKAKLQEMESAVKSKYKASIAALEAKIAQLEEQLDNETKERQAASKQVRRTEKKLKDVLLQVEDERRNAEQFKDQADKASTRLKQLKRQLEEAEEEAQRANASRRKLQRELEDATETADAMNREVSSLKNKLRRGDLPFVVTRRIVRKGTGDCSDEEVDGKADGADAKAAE
UniProt Q02248: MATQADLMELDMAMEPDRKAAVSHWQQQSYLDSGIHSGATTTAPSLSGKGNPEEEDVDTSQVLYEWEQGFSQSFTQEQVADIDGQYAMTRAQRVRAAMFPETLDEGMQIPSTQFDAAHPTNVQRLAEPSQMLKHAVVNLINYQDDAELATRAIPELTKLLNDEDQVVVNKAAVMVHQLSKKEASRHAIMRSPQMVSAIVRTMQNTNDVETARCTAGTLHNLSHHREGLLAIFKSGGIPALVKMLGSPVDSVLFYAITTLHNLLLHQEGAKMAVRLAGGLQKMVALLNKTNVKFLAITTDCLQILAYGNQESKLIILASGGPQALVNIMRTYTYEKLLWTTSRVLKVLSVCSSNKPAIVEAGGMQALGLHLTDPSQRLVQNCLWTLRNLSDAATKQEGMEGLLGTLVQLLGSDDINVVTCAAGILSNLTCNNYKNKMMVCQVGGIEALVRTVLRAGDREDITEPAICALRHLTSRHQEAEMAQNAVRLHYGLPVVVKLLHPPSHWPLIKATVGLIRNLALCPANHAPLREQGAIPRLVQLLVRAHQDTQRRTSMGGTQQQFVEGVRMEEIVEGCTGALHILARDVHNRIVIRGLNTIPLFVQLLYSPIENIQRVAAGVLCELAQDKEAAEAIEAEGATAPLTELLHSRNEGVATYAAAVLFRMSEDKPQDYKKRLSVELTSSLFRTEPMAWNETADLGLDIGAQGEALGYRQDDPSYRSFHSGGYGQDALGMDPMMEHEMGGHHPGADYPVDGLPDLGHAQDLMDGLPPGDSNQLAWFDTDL

Biological target: Myosin IIA (mouse (endogenous in bEnd.3)) (UniProt Q8VDD5)
Test: co-IP; endogenous proteins; bEnd.3 brain ECs grown to a confluent monolayer, lysed, co-immunoprecipitation; which protein was precipitated is not told

binding: binds
Substance: β-catenin (from UniProt Q02248 1-781)
